{"sequences": {"note": "Sequences of proteins named here, by UniProt entry; tags and fusion partners are left off. A change or cut given only in a name is not applied to a line headed by its entry.", "UniProt Q9NYJ7": "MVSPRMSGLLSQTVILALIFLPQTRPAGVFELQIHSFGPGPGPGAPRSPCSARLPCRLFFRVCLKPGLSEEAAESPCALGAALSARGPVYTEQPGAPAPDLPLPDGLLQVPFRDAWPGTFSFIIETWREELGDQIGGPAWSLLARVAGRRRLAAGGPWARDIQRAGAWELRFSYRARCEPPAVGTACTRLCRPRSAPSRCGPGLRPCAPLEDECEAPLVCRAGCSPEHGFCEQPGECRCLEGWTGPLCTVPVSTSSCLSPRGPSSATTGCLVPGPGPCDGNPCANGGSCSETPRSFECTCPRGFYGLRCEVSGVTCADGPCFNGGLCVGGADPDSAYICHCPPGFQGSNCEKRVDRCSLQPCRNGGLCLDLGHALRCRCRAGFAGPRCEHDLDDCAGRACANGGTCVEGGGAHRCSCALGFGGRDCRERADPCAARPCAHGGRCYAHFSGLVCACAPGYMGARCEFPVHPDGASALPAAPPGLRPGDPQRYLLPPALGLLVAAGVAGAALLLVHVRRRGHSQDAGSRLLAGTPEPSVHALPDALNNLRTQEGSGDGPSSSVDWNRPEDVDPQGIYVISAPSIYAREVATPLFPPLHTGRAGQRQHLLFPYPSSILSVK"}, "source": "patent US20190201542A1", "about": "“ANTI-DLL3 DRUG CONJUGATES FOR TREATING TUMORS AT RISK OF NEUROENDOCRINE TRANSITION” (ABBVIE STEMCENTRX LLC, priority 2016, published 2019)", "binders": {"B1": {"name": "SC16.31 (antibody, V domains shown)", "VH": "EVQLQQSGPELVKPGASVKISCKASGYSFSRFYMHWVKQSPENSLEWIGEINPSTGGTSYNQKFKGKATLTVDKSSSTAYMQLKSLTSEESAVYYCTRGYGSNWYFDVWGAGTTVTVST", "VL": "DIVLTQSPLSLPVNIGDQASISCKSTKSLLNSDGFTYLDWYLQRPGQSPQFLIYLVSNRFSGVPDRFSGSGSGTDFTLKISRVEAEDLGVYYCFQSNYLPLTFGAGTKLELR"}}, "target": "human DLL3 (human) (UniProt Q9NYJ7)", "experiment": "screen on immobilized hDLL3 or h293-hDLL3 cells", "note": "Results are given in words; binding and its absence hold for the method and conditions named. Some results given as binding are weak or reduced against the parent protein; the word gives no strength.", "data": [{"binder": "B1", "values": [{"measurement": "binding", "result": "binds"}]}]}
